PubChem BioAssay AID1259297 – Sanger Institute | 2017
The deposit covers 794 reagents; shown is a part drawn at random. Of all reagents, 13 (1.6%) got an active call. 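Calls reflect knock-down without drug only; drug synergy is judged separately, with scores above 0.15 counted as synergy.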 Unmarked entries are inactive. No viability above 1 is reported: the scale is capped. Not given: the amount of reagent, the time to read-out.

Aim: 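Kinase knock-downs that lower colorectal cancer cell viability or act with drugs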 (primary screen)
Cells: human RCM1 colorectal cancer cell line
Knock-down reagent: siRNA pool against human genes
Challenge: separate arms: DMSO vehicle, or one anchor drug at a mild dose: BYL719 1 µM, cetuximab 5 µg/ml, trametinib 10 nM
Measurement: 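Replicate-mean well viability as a share of non-targeting pool control, a robust z-score without drug, and synergy scores for BYL719, cetuximab and trametinib arms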
Scale: viability z-score, knock-down alone: higher = more viable cells than non-targeting controls; viability, knock-down alone (DMSO): higher = more viable cells; synergy score with trametinib: higher = stronger combined killing with trametinib; synergy score with BYL719: higher = stronger combined killing with BYL719; synergy score with cetuximab: higher = stronger combined killing with cetuximab
Active means: 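Essential when the viability robust z-score for knock-down alone is below -3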
Calls: active = essential when knocked down alone; inactive = no clear loss of viability alone

gene | viability z-score, knock-down alone | viability, knock-down alone (DMSO) (fraction of control) | synergy score with trametinib | synergy score with BYL719 | synergy score with cetuximab
SGK3 (GeneID 23678) | 0.441 | 0.957 | -0.00688 | -0.0566 | -0.156
NLK (GeneID 51701) | 0.807 | 0.991 | 0.172 | 0.0307 | 0.0678
AK2 (GeneID 204) | 0.9 | 1 | 0.0564 | -0.0728 | -0.118
TCF12 (GeneID 6938) | 0.0273 | 0.919 | -0.0931 | -0.123 | 0.000378
CDKN2B (GeneID 1030) | 0.9 | 1 | 0.00196 | 0.0273 | -0.118
CDK10 (GeneID 8558) | -0.709 | 0.851 | 0.112 | 0.125 | 0.082
ADCK2 (GeneID 90956) | -0.0132 | 0.915 | 0.00989 | -0.0747 | -0.0813
PFKP (GeneID 5214) | -0.0782 | 0.909 | -0.0585 | 0.0325 | -0.12
FGFR3 (GeneID 2261) | -2.32 | 0.701 | -0.0375 | -0.0918 | -0.105
PIP5KL1 (GeneID 138429) | 0.503 | 0.963 | -0.00102 | 0.081 | 0.00813
PRKD3 (GeneID 23683) | -0.13 | 0.904 | 0.0676 | -0.104 | 0.0941
PAK2 (GeneID 5062) | 0.519 | 0.965 | -0.0194 | 0.0764 | -0.0767
MAP2K3 (GeneID 5606) | -1.03 | 0.821 | -0.0123 | -0.0369 | -0.276
DCK (GeneID 1633) | -0.174 | 0.9 | 0.0154 | -0.0454 | -0.00992
ALPK1 (GeneID 80216) | -0.329 | 0.886 | 0.0511 | -0.035 | -0.139
XYLB (GeneID 9942) | 0.44 | 0.957 | -0.109 | -0.0637 | -0.139
PCK1 (GeneID 5105) | -0.459 | 0.874 | -0.0871 | -0.00398 | -0.121
PCBP1 (GeneID 5093) | 0.242 | 0.939 | -0.0116 | -0.0823 | -0.0865
NME6 (GeneID 10201) | -2.7 | 0.666 | 0.00314 | 0.0149 | -0.106
EEF2K (GeneID 29904) | -0.39 | 0.88 | -0.0509 | 0.0255 | 0.0166
LRRK1 (GeneID 79705) | 0.9 | 1 | -0.213 | -0.0728 | -0.118
KCNH8 (GeneID 131096) | -0.917 | 0.831 | 0.143 | -0.104 | -0.0059
TSSK3 (GeneID 81629) | 0.487 | 0.962 | -0.0519 | -0.03 | -0.1
STRADB (GeneID 55437) | -0.906 | 0.832 | -0.0147 | -0.0788 | -0.0435
AKT1 (GeneID 207) | 0.9 | 1 | 0.0342 | -0.0728 | -0.0517
PDK3 (GeneID 5165) | 0.9 | 1 | 0.127 | 0.0442 | 0.00693
PNCK (GeneID 139728) | 0.00772 | 0.917 | 0.0825 | -0.0749 | -0.13
CILK1 (GeneID 22858) | 0.35 | 0.949 | 0.011 | -0.0306 | -0.145
PI4K2A (GeneID 55361) | 0.867 | 0.997 | -0.0321 | -0.0327 | -0.121
GATA3 (GeneID 2625) | 0.386 | 0.952 | -0.0658 | -0.0168 | 0.0907
MAP4K1 (GeneID 11184) | 0.393 | 0.953 | -0.00828 | -0.035 | -0.109
BUB1 (GeneID 699) | -0.139 | 0.904 | 0.0224 | -0.0501 | -0.144
ACSL6 (GeneID 23305) | 0.9 | 1 | -0.078 | -0.0728 | -0.118
EPHA3 (GeneID 2042) | -1.68 | 0.76 | 0.0568 | -0.0189 | 0.0982
CDKL5 (GeneID 6792) | 0.511 | 0.964 | 0.0443 | -0.00664 | 0.0134
MAP4K5 (GeneID 11183) | -0.55 | 0.865 | 0.121 | 0.0385 | -0.00952
FGFR2 (GeneID 2263) | 0.9 | 1 | 0.101 | -0.0695 | -0.0569
YES1 (GeneID 7525) | -1.09 | 0.815 | 0.0191 | -0.0179 | -0.222
CDC42BPB (GeneID 9578) | 0.517 | 0.964 | -0.0205 | -0.0154 | -0.15
CHD4 (GeneID 1108) | -3.47 (active) | 0.594 | 0.0769 | -0.108 | 0.0102
STK40 (GeneID 83931) | -0.0963 | 0.907 | -0.0473 | 0.0505 | 0.0155
KHK (GeneID 3795) | 0.46 | 0.959 | 0.028 | -0.00624 | -0.0092
ADK (GeneID 132) | -1.59 | 0.769 | 0.0111 | -0.0505 | -0.106
RPS6KA5 (GeneID 9252) | -0.263 | 0.892 | 0.0851 | 0.136 | -0.019
MAPKAPK3 (GeneID 7867) | -1.11 | 0.814 | 0.0923 | -0.00935 | 0.0614
STK4 (GeneID 6789) | 0.9 | 1 | -0.0814 | 0.0182 | -0.118
PFKFB1 (GeneID 5207) | -0.743 | 0.847 | 0.0406 | 0.0335 | -0.0282
MAP3K12 (GeneID 7786) | 0.0373 | 0.92 | 0.04 | -0.0293 | -0.154
CSNK1D (GeneID 1453) | 0.111 | 0.927 | 0.00664 | -0.112 | -0.183
KCNH2 (GeneID 3757) | -0.236 | 0.895 | -0.0297 | -0.11 | -0.127
PRKD1 (GeneID 5587) | 0.0151 | 0.918 | 0.00504 | -0.0258 | 0.072
SRGAP3 (GeneID 9901) | 0.616 | 0.974 | -0.105 | -0.0973 | -0.141
CDK7 (GeneID 1022) | 0.9 | 1 | -0.0554 | -0.0682 | -0.118
TAOK2 (GeneID 9344) | 0.9 | 1 | 0.108 | -0.0516 | -0.118
CKB (GeneID 1152) | 0.9 | 1 | -0.0428 | -0.0728 | -0.118
MAP3K1 (GeneID 4214) | 0.9 | 1 | 0.0163 | 0.0159 | -0.118
RPS6KA3 (GeneID 6197) | 0.27 | 0.942 | -0.122 | 0.0315 | -0.126
NPR2 (GeneID 4882) | 0.088 | 0.925 | 0.0955 | -0.0787 | -0.185
FXN (GeneID 2395) | 0.0641 | 0.922 | 0.0373 | -0.145 | -0.0645
CERK (GeneID 64781) | 0.846 | 0.995 | 0.0342 | 0.0193 | -0.031
CLK2 (GeneID 1196) | 0.859 | 0.996 | -0.0205 | -0.0412 | -0.107
TSSK6 (GeneID 83983) | -0.442 | 0.875 | 0.109 | -0.0154 | -0.00709
PIK3CD (GeneID 5293) | 0.9 | 1 | -0.0221 | -0.0728 | -0.118
